Earlier results as cited in patent US10751469B2, “Computer controlled pediatric regional anesthesia” (Northwestern University, priority 2017, dated 2020).
For at least one compound, name, drawing or mass did not settle the structure.

Tested on: nerve
Details: FIG. 2-B; cited from reference 7 (Gasser & Erlanger 1929)

SMILES: COC(=O)[C@H]1[C@@H](OC(=O)c2ccccc2)C[C@@H]2CC[C@H]1N2C [cocaine]
- change of electrically generated mCAPs with cocaine concentrations: predictably be altered
